# Results deposited as PubChem BioAssay AID1259308 (NCATS, 2017).
# Assay: 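Genes whose loss raises luciferase production in HEK293 cells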 (primary screen)
# Cells: human HEK293 embryonic kidney cells stably expressing firefly luciferase (HEK-CMV-Luc2-Hygro)
# Reagent: single siRNA against human genes, 0.8 pmol siRNA per well
# Time to read-out: 72 h
# Detection: 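Luciferase light (ONE-Glo) measured on one replicate plate set and viability (CellTiter-Glo) on the other, scaled to a negative control siRNA, with robust z-scores and luciferase per cell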
# Scale: total luciferase, z-score and total luciferase, % of control: higher = more reporter protein produced; luciferase per cell, z-score: higher = more reporter output per viable cell; viable cells, % of control: higher = more viable cells
# Hit rule: 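An siRNA counts as active if its total luciferase robust z-score exceeds 3; genes with two or more such siRNAs out of three were retested with fresh siRNAs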
# Calls: active = raised luciferase; inactive = no rise
# The deposit covers about 59,000 reagents; this is a part drawn at random. About 1,510 of them (2.6%) were called active. 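Calls use total luciferase alone and ignore viability, so some active siRNAs may act by altering cell number.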 Entries without a mark were called inactive. The numbers tell different reagents against one gene apart. No sequences are given here.
target gene,reagent,"total luciferase, z-score","total luciferase, % of control","luciferase per cell, z-score","viable cells, % of control"
SPARC (GeneID 6678),1,-1.04,61.3,-1.03,89.7
SPARC (GeneID 6678),2,-1.97,42.7,-2.2,85.1
SPARC (GeneID 6678),3,4.14 (active),164,2.68,90.7
FUS (GeneID 2521),1,-2.22,37.6,-2.47,80.6
FUS (GeneID 2521),2,0.588,93.6,0.314,96.3
FUS (GeneID 2521),3,-0.618,69.6,-0.945,99.7
NUDT7 (GeneID 283927),1,-0.318,75.6,-0.408,94
NUDT7 (GeneID 283927),2,0.0962,83.8,0.21,88.6
NUDT7 (GeneID 283927),3,-0.914,63.7,-0.749,86.7
COX7A2L (GeneID 9167),1,-0.811,65.8,-1.01,95.9
COX7A2L (GeneID 9167),2,-0.341,75.1,-0.811,104
COX7A2L (GeneID 9167),3,0.271,87.3,-0.498,111

Part of the list above, showing only “viable cells, % of control”:
FUS (GeneID 2521) #2: 96.3
FUS (GeneID 2521) #3: 99.7
NUDT7 (GeneID 283927) #1: 94

Next results follow.
target gene,reagent,"total luciferase, z-score","total luciferase, % of control","luciferase per cell, z-score","viable cells, % of control"
NCAPD3 (GeneID 23310),1,-0.0232,81.4,0.0584,89.6
NCAPD3 (GeneID 23310),2,-0.911,63.8,-0.0608,72.4
NCAPD3 (GeneID 23310),3,0.0547,83,0.521,80.8
SLC35A5 (GeneID 55032),1,0.285,87.6,0.947,76.2
SLC35A5 (GeneID 55032),2,0.207,86,-0.199,101
SLC35A5 (GeneID 55032),3,-0.861,64.8,-0.144,75.2
ERLIN2 (GeneID 11160),1,-2.48,32.5,-2.19,64.6
ERLIN2 (GeneID 11160),2,2.2,126,1.34,98.5
ERLIN2 (GeneID 11160),3,0.761,97,0.315,99.8
TGFB1 (GeneID 7040),1,-0.155,78.8,-0.41,98.1
TGFB1 (GeneID 7040),2,1.04,103,0.563,98.8
TGFB1 (GeneID 7040),3,-1.27,56.7,0.13,61.2
